{"sequences": {"note": "Protein sequences, listed by entry. Tags and fused reporters are not part of them. Lines headed by an entry give the natural chain unless they say otherwise; changes in a name come on top.", "UniProt P06401": "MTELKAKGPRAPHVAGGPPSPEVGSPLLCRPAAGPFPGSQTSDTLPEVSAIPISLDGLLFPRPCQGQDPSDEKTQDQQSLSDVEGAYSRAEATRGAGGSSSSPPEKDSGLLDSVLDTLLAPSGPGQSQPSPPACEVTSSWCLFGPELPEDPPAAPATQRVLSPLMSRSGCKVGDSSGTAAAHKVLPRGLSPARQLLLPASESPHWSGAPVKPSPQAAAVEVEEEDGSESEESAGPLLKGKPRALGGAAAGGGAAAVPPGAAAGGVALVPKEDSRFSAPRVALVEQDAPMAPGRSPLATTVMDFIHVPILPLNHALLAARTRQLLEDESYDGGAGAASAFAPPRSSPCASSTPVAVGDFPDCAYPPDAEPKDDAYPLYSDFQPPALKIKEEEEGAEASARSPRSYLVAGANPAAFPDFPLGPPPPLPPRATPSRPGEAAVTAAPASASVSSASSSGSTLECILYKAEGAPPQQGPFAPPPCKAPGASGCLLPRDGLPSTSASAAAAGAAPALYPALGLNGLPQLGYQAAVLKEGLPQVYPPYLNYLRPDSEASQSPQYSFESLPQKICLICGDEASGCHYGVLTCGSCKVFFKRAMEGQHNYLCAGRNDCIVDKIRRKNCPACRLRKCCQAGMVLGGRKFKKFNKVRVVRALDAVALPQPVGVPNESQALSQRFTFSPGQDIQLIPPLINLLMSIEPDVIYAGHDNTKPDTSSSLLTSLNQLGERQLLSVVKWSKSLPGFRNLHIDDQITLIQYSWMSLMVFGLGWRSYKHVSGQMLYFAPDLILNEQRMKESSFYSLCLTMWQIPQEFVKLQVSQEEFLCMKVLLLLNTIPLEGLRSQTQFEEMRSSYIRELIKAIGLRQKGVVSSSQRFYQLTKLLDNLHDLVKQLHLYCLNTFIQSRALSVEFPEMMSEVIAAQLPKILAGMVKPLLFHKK", "UniProt Q92769": "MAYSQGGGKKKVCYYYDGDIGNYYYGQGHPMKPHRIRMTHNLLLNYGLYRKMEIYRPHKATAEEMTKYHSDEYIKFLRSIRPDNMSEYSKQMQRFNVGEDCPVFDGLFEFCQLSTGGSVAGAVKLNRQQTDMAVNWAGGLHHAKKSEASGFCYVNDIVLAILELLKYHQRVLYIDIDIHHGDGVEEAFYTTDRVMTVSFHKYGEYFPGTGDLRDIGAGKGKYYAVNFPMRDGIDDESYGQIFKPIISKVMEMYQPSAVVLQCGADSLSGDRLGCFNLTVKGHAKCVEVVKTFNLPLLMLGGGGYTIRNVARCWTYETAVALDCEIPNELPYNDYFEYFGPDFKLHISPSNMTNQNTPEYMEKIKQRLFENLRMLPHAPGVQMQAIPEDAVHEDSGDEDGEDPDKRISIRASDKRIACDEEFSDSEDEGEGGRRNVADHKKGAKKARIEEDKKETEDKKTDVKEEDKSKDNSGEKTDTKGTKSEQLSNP"}, "source": "paper PMC10284899", "key": {"[1]": {"target": "T1, His-TRPS1 (transcriptional repressor GATA binding 1) (UniProt Q9UHF7)", "T1 sequence": "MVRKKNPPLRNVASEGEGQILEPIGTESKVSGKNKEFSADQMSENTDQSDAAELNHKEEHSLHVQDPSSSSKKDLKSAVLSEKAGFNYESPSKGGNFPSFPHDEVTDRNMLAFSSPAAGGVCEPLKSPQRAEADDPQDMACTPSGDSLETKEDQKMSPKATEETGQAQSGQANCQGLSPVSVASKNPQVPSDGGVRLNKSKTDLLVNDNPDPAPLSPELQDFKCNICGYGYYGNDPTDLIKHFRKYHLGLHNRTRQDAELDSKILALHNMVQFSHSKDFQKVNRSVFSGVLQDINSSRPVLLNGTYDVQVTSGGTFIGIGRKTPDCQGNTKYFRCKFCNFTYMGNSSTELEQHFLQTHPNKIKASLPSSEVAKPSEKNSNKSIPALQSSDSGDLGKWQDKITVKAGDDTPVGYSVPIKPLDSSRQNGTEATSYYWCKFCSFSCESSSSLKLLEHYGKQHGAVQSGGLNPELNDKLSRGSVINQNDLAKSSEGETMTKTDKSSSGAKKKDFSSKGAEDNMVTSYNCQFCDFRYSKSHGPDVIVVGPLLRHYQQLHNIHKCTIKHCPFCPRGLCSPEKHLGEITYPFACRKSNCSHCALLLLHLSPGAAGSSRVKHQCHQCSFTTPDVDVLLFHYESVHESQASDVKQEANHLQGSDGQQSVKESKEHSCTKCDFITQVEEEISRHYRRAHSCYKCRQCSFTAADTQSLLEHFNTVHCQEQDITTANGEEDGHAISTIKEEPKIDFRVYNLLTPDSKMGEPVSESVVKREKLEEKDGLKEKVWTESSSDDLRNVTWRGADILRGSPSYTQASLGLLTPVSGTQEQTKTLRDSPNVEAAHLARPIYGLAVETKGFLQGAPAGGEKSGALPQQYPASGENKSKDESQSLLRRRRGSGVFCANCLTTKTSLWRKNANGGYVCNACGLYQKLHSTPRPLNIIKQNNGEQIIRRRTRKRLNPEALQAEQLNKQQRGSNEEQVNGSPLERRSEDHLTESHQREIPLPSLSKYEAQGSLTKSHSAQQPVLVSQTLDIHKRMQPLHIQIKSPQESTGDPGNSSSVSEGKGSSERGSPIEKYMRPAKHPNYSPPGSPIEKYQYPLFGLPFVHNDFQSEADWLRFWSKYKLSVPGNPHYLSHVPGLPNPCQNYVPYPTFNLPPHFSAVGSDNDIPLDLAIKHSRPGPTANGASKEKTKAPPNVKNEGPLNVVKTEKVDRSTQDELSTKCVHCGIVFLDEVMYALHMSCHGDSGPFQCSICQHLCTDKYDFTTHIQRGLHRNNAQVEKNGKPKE", "experiment": "co-IP; exogenous co-IP; HEK-293T co-transfected with HA-PGR and His-TRPS1, or His-TRPS1 and Flag-HDAC2, for 36 h; lysates in HEGN buffer, antibody-coupled Dyna beads overnight at 4 °C, immunoblot"}, "[2]": {"target": "T2, transcriptional repressor GATA binding 1 (endogenous) (human (endogenous in Ishikawa and T47D)) (UniProt Q9UHF7)", "T2 sequence": "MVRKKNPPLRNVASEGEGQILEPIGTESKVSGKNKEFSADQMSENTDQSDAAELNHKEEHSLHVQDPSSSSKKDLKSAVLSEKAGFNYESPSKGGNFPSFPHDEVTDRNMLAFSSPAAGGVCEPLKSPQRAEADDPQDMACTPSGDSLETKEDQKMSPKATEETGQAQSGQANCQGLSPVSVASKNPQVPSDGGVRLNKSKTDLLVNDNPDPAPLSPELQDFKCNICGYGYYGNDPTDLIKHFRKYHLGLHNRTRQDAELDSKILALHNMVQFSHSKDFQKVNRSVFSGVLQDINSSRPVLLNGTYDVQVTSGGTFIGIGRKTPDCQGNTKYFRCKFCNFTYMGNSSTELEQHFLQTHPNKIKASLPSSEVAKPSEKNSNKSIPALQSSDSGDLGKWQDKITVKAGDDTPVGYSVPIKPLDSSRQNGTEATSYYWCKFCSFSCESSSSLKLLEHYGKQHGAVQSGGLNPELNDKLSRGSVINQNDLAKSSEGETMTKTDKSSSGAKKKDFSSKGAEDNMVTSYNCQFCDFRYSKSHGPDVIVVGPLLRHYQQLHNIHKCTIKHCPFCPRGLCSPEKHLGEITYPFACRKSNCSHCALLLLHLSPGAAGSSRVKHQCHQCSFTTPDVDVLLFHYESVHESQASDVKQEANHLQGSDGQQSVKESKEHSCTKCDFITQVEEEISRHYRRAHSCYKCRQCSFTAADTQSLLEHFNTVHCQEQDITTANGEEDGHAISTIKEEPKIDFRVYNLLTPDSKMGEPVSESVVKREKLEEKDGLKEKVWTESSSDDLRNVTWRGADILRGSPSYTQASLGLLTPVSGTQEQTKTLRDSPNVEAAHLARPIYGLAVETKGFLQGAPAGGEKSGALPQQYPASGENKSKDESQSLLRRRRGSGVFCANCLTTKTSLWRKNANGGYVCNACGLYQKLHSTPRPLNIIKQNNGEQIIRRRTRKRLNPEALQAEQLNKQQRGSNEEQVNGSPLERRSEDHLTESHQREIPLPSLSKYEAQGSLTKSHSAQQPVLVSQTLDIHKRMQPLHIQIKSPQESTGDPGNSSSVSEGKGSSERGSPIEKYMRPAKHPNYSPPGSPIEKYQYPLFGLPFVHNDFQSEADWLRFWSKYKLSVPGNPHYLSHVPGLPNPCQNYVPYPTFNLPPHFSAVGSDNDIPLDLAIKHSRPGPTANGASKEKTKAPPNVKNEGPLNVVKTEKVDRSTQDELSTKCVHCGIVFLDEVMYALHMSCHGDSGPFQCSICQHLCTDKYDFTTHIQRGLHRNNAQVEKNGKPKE", "experiment": "co-IP; endogenous co-IP in T47D cells without MPA; lysates in HEGN buffer, antibody-coupled Dyna beads overnight at 4 °C, immunoblot"}, "[3]": {"target": "T2, transcriptional repressor GATA binding 1 (endogenous) (human (endogenous in Ishikawa and T47D))", "experiment": "co-IP; endogenous co-IP in Ishikawa cells, with or without MPA treatment; lysates in HEGN buffer, antibody-coupled Dyna beads overnight at 4 °C, immunoblot"}, "[4]": {"target": "HA-PGR (progesterone receptor) (UniProt P06401)", "experiment": "co-IP; exogenous co-IP; HEK-293T co-transfected with HA-PGR and His-TRPS1, or His-TRPS1 and Flag-HDAC2, for 36 h; lysates in HEGN buffer, antibody-coupled Dyna beads overnight at 4 °C, immunoblot"}, "[5]": {"target": "progesterone receptor (endogenous) (human (endogenous in Ishikawa and T47D)) (UniProt P06401)", "experiment": "co-IP; endogenous co-IP in T47D cells without MPA; lysates in HEGN buffer, antibody-coupled Dyna beads overnight at 4 °C, immunoblot"}, "[6]": {"target": "progesterone receptor (endogenous) (human (endogenous in Ishikawa and T47D)) (UniProt P06401)", "experiment": "co-IP; endogenous co-IP in Ishikawa cells, with or without MPA treatment; lysates in HEGN buffer, antibody-coupled Dyna beads overnight at 4 °C, immunoblot"}}, "note": "These are yes or no findings as the source states them, for the method shown. Binding seen in cells or lysates may run through a third protein. Some entries that bind do so weakly or less than the wild type. For part of these data: Sequences can lack the tags named with a protein.", "data": [{"molecule": "Flag-HDAC2 (histone deacetylase 2) (from UniProt Q92769 1-488)", "values": [{"measurement": "binding", "setting": "[1]", "result": "binds"}]}, {"molecule": "histone deacetylase 2 (endogenous) (from UniProt Q92769 1-488)", "values": [{"measurement": "binding", "setting": "[2]", "result": "binds"}, {"measurement": "binding", "setting": "[3]", "result": "binds"}]}, {"molecule": "His-TRPS1 (transcriptional repressor GATA binding 1) (protein, UniProt Q9UHF7 1-1281) MVRKKNPPLRNVASEGEGQILEPIGTESKVSGKNKEFSADQMSENTDQSDAAELNHKEEHSLHVQDPSSSSKKDLKSAVLSEKAGFNYESPSKGGNFPSFPHDEVTDRNMLAFSSPAAGGVCEPLKSPQRAEADDPQDMACTPSGDSLETKEDQKMSPKATEETGQAQSGQANCQGLSPVSVASKNPQVPSDGGVRLNKSKTDLLVNDNPDPAPLSPELQDFKCNICGYGYYGNDPTDLIKHFRKYHLGLHNRTRQDAELDSKILALHNMVQFSHSKDFQKVNRSVFSGVLQDINSSRPVLLNGTYDVQVTSGGTFIGIGRKTPDCQGNTKYFRCKFCNFTYMGNSSTELEQHFLQTHPNKIKASLPSSEVAKPSEKNSNKSIPALQSSDSGDLGKWQDKITVKAGDDTPVGYSVPIKPLDSSRQNGTEATSYYWCKFCSFSCESSSSLKLLEHYGKQHGAVQSGGLNPELNDKLSRGSVINQNDLAKSSEGETMTKTDKSSSGAKKKDFSSKGAEDNMVTSYNCQFCDFRYSKSHGPDVIVVGPLLRHYQQLHNIHKCTIKHCPFCPRGLCSPEKHLGEITYPFACRKSNCSHCALLLLHLSPGAAGSSRVKHQCHQCSFTTPDVDVLLFHYESVHESQASDVKQEANHLQGSDGQQSVKESKEHSCTKCDFITQVEEEISRHYRRAHSCYKCRQCSFTAADTQSLLEHFNTVHCQEQDITTANGEEDGHAISTIKEEPKIDFRVYNLLTPDSKMGEPVSESVVKREKLEEKDGLKEKVWTESSSDDLRNVTWRGADILRGSPSYTQASLGLLTPVSGTQEQTKTLRDSPNVEAAHLARPIYGLAVETKGFLQGAPAGGEKSGALPQQYPASGENKSKDESQSLLRRRRGSGVFCANCLTTKTSLWRKNANGGYVCNACGLYQKLHSTPRPLNIIKQNNGEQIIRRRTRKRLNPEALQAEQLNKQQRGSNEEQVNGSPLERRSEDHLTESHQREIPLPSLSKYEAQGSLTKSHSAQQPVLVSQTLDIHKRMQPLHIQIKSPQESTGDPGNSSSVSEGKGSSERGSPIEKYMRPAKHPNYSPPGSPIEKYQYPLFGLPFVHNDFQSEADWLRFWSKYKLSVPGNPHYLSHVPGLPNPCQNYVPYPTFNLPPHFSAVGSDNDIPLDLAIKHSRPGPTANGASKEKTKAPPNVKNEGPLNVVKTEKVDRSTQDELSTKCVHCGIVFLDEVMYALHMSCHGDSGPFQCSICQHLCTDKYDFTTHIQRGLHRNNAQVEKNGKPKE", "values": [{"measurement": "binding", "setting": "[4]", "result": "binds"}]}, {"molecule": "transcriptional repressor GATA binding 1 (endogenous) (protein, UniProt Q9UHF7 1-1281) MVRKKNPPLRNVASEGEGQILEPIGTESKVSGKNKEFSADQMSENTDQSDAAELNHKEEHSLHVQDPSSSSKKDLKSAVLSEKAGFNYESPSKGGNFPSFPHDEVTDRNMLAFSSPAAGGVCEPLKSPQRAEADDPQDMACTPSGDSLETKEDQKMSPKATEETGQAQSGQANCQGLSPVSVASKNPQVPSDGGVRLNKSKTDLLVNDNPDPAPLSPELQDFKCNICGYGYYGNDPTDLIKHFRKYHLGLHNRTRQDAELDSKILALHNMVQFSHSKDFQKVNRSVFSGVLQDINSSRPVLLNGTYDVQVTSGGTFIGIGRKTPDCQGNTKYFRCKFCNFTYMGNSSTELEQHFLQTHPNKIKASLPSSEVAKPSEKNSNKSIPALQSSDSGDLGKWQDKITVKAGDDTPVGYSVPIKPLDSSRQNGTEATSYYWCKFCSFSCESSSSLKLLEHYGKQHGAVQSGGLNPELNDKLSRGSVINQNDLAKSSEGETMTKTDKSSSGAKKKDFSSKGAEDNMVTSYNCQFCDFRYSKSHGPDVIVVGPLLRHYQQLHNIHKCTIKHCPFCPRGLCSPEKHLGEITYPFACRKSNCSHCALLLLHLSPGAAGSSRVKHQCHQCSFTTPDVDVLLFHYESVHESQASDVKQEANHLQGSDGQQSVKESKEHSCTKCDFITQVEEEISRHYRRAHSCYKCRQCSFTAADTQSLLEHFNTVHCQEQDITTANGEEDGHAISTIKEEPKIDFRVYNLLTPDSKMGEPVSESVVKREKLEEKDGLKEKVWTESSSDDLRNVTWRGADILRGSPSYTQASLGLLTPVSGTQEQTKTLRDSPNVEAAHLARPIYGLAVETKGFLQGAPAGGEKSGALPQQYPASGENKSKDESQSLLRRRRGSGVFCANCLTTKTSLWRKNANGGYVCNACGLYQKLHSTPRPLNIIKQNNGEQIIRRRTRKRLNPEALQAEQLNKQQRGSNEEQVNGSPLERRSEDHLTESHQREIPLPSLSKYEAQGSLTKSHSAQQPVLVSQTLDIHKRMQPLHIQIKSPQESTGDPGNSSSVSEGKGSSERGSPIEKYMRPAKHPNYSPPGSPIEKYQYPLFGLPFVHNDFQSEADWLRFWSKYKLSVPGNPHYLSHVPGLPNPCQNYVPYPTFNLPPHFSAVGSDNDIPLDLAIKHSRPGPTANGASKEKTKAPPNVKNEGPLNVVKTEKVDRSTQDELSTKCVHCGIVFLDEVMYALHMSCHGDSGPFQCSICQHLCTDKYDFTTHIQRGLHRNNAQVEKNGKPKE", "values": [{"measurement": "binding", "setting": "[5]", "result": "binds"}, {"measurement": "binding", "setting": "[6]", "result": "binds"}]}]}
